# Source: publication PMC8384837
# Numbering of substitutions follows the chain as printed. The list shows a part of the results. For part of these data: At the low end of the ranking, values are background and their order means little. For part of these data: The exact form of the protein is not confirmed.
# Tests used:
# Conditions in all cases: yeast three-hybrid, YBZ-1, SC-Leu-His + 0.5 mM 3-AT, 4 days
# [1] = target: T1, PUM1 PUF domain R1-QFR R2-VFQ R7-NPG S863Q + R864F + Q867R + N899V + Y900F + S1079N + N1080P + E1083G (UniProt Q14671)
# T1 sequence: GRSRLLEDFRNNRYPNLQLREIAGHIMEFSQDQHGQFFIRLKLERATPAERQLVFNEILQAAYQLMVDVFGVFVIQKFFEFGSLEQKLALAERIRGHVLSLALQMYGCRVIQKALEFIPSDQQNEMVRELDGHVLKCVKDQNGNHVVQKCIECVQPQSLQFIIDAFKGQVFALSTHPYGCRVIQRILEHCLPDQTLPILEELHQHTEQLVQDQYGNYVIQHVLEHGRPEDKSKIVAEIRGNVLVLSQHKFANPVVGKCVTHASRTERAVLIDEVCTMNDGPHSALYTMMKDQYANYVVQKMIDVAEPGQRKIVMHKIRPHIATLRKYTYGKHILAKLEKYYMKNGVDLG
# [2] = target: T2, PUM1 PUF domain R3-THE R4-TFR C935T + R936H + Q939E + N971T + H972F + Q975R (UniProt Q14671)
# T2 sequence: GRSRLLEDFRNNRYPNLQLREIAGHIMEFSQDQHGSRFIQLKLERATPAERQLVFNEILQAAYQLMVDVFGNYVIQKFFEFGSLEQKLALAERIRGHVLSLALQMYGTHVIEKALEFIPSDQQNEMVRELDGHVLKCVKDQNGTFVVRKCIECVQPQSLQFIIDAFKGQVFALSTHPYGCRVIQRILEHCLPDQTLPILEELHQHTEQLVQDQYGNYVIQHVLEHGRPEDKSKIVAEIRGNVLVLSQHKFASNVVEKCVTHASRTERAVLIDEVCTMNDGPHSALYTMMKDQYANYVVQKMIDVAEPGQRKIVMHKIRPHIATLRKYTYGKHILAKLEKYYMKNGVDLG
# [3] = target: T3, PUM1 PUF domain R2-VFQ R3-THE R4-TFR N899V + Y900F + C935T + R936H + Q939E + N971T + H972F + Q975R (UniProt Q14671)
# T3 sequence: T2 sequence with N72V, Y73F
# [4] = target: T4, PUM1 PUF domain R5-PHQ R6-SWD C1007P + R1008H + N1043S + Y1044W + Q1047D (UniProt Q14671)
# T4 sequence: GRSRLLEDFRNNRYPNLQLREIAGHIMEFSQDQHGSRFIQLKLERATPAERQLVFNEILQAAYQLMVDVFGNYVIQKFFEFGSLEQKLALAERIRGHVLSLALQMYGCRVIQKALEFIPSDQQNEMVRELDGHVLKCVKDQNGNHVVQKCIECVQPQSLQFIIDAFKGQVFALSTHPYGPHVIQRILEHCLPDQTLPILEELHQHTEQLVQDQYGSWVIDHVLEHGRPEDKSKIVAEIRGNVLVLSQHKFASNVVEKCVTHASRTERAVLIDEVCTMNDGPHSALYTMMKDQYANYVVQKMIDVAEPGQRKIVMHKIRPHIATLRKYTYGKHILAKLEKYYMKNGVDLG
# [5] = target: T5, PUM1 PUF domain R6-SWD R7-NPG N1043S + Y1044W + Q1047D + S1079N + N1080P + E1083G (Homo sapiens) (UniProt Q14671)
# T5 sequence: T4 sequence with P180C, H181R, S252N, N253P, E256G
# [6] = target: T6, PUM1 PUF domain R6-SWD R7-NPG N1043S + Y1044W + Q1047D + S1079N + N1080P + E1083G (UniProt Q14671)
# T6 sequence: T4 sequence with P180C, H181R, S252N, N253P, E256G
sequence,measurement,setting,value
GGCUAGAACUAGUGGAUCCCCCGGCGCCCGGCGGCUCGAGCCCGGGUAAGCUCAAGUGGUCUGCAUGCCGCCGGGCGCCAUGCCUGCAGGUCGACUCUAGAAAACAUG,binding signal (log2 enrichment (interaction score)),[1],-4.92
same,binding signal (log2 enrichment (interaction score)),[2],-7.09
GGCUAGAACUAGUGGAUCCCCCGGCGCCCGGCGGCUCGAGCCCGGGUAAGUUCAUGAAGUCUGCAUGCCGCCGGGCGCCAUGCCUGCAGGUCGACUCUAGAAAACAUG,binding signal (log2 enrichment (interaction score)),[1],-5.06
same,binding signal (log2 enrichment (interaction score)),[2],-6.42
GGCUAGAACUAGUGGAUCCCCCGGCGCCCGGCGGCUCGAGCCCGGGUAAGAUUCCAUAGUCUGCAUGCCGCCGGGCGCCAUGCCUGCAGGUCGACUCUAGAAAACAUG,binding signal (log2 enrichment (interaction score)),[1],-6.3
same,binding signal (log2 enrichment (interaction score)),[2],-7.71
GGCUAGAACUAGUGGAUCCCCCGGCGCCCGGCGGCUCGAGCCCGGGUAAGGGGAAAUGGUCUGCAUGCCGCCGGGCGCCAUGCCUGCAGGUCGACUCUAGAAAACAUG,binding signal (log2 enrichment (interaction score)),[1],-5.13
same,binding signal (log2 enrichment (interaction score)),[3],-4.79
same,binding signal (log2 enrichment (interaction score)),[4],< -7.18
same,binding signal (log2 enrichment (interaction score)),[5],-0.99
GGCUAGAACUAGUGGAUCCCCCGGCGCCCGGCGGCUCGAGCCCGGGUAAGUAGAACGCGUCUGCAUGCCGCCGGGCGCCAUGCCUGCAGGUCGACUCUAGAAAACAUG,binding signal (log2 enrichment (interaction score)),[1],< -5.77
same,binding signal (log2 enrichment (interaction score)),[3],-5.77
same,binding signal (log2 enrichment (interaction score)),[5],-0.87
GGCUAGAACUAGUGGAUCCCCCGGCGCCCGGCGGCUCGAGCCCGGGUAAGUUUAUUUCGUCUGCAUGCCGCCGGGCGCCAUGCCUGCAGGUCGACUCUAGAAAACAUG,binding signal (log2 enrichment (interaction score)),[1],-6.56
same,binding signal (log2 enrichment (interaction score)),[2],-7.7
GGCUAGAACUAGUGGAUCCCCCGGCGCCCGGCGGCUCGAGCCCGGGUAAGUCUGCUAAGUCUGCAUGCCGCCGGGCGCCAUGCCUGCAGGUCGACUCUAGAAAACAUG,binding signal (log2 enrichment (interaction score)),[1],-4.77
same,binding signal (log2 enrichment (interaction score)),[3],-5.15
same,binding signal (log2 enrichment (interaction score)),[5],-0.51
GGCUAGAACUAGUGGAUCCCCCGGCGCCCGGCGGCUCGAGCCCGGGUAAGUUGCCGUAGUCUGCAUGCCGCCGGGCGCCAUGCCUGCAGGUCGACUCUAGAAAACAUG,binding signal (log2 enrichment (interaction score)),[1],-6.72
same,binding signal (log2 enrichment (interaction score)),[3],-5.42
same,binding signal (log2 enrichment (interaction score)),[4],-7.04
GGCUAGAACUAGUGGAUCCCCCGGCGCCCGGCGGCUCGAGCCCGGGUAAGUUAAAGAAGUCUGCAUGCCGCCGGGCGCCAUGCCUGCAGGUCGACUCUAGAAAACAUG,binding signal (log2 enrichment (interaction score)),[1],-5.83
same,binding signal (log2 enrichment (interaction score)),[3],-5.61
same,binding signal (log2 enrichment (interaction score)),[5],< -0.81
GGCUAGAACUAGUGGAUCCCCCGGCGCCCGGCGGCUCGAGCCCGGGUAAGGUUAAGUUGUCUGCAUGCCGCCGGGCGCCAUGCCUGCAGGUCGACUCUAGAAAACAUG,binding signal (log2 enrichment (interaction score)),[1],< -6.02
same,binding signal (log2 enrichment (interaction score)),[3],-4.84
same,binding signal (log2 enrichment (interaction score)),[5],-0.93
GGCUAGAACUAGUGGAUCCCCCGGCGCCCGGCGGCUCGAGCCCGGGUAAGUUAAAAUCGUCUGCAUGCCGCCGGGCGCCAUGCCUGCAGGUCGACUCUAGAAAACAUG,binding signal (log2 enrichment (interaction score)),[1],-6.59
same,binding signal (log2 enrichment (interaction score)),[3],-5.88
same,binding signal (log2 enrichment (interaction score)),[4],-8.59
same,binding signal (log2 enrichment (interaction score)),[6],-2.32
GGCUAGAACUAGUGGAUCCCCCGGCGCCCGGCGGCUCGAGCCCGGGUAAGCUCAAGAAGUCUGCAUGCCGCCGGGCGCCAUGCCUGCAGGUCGACUCUAGAAAACAUG,binding signal (log2 enrichment (interaction score)),[1],< -5.42
same,binding signal (log2 enrichment (interaction score)),[2],-8.03

# Reprinted at random: 2 records from the list.
sequence,measurement,setting,value
GGCUAGAACUAGUGGAUCCCCCGGCGCCCGGCGGCUCGAGCCCGGGUAAGUCUGCUAAGUCUGCAUGCCGCCGGGCGCCAUGCCUGCAGGUCGACUCUAGAAAACAUG,binding signal (log2 enrichment (interaction score)),[3],-5.15
GGCUAGAACUAGUGGAUCCCCCGGCGCCCGGCGGCUCGAGCCCGGGUAAGUUAAAGAAGUCUGCAUGCCGCCGGGCGCCAUGCCUGCAGGUCGACUCUAGAAAACAUG,binding signal (log2 enrichment (interaction score)),[5],< -0.81
